According to publication PMC7106964:
Results are given in words; binding and its absence hold for the method and conditions named. In cells and extracts the contact can be indirect. Some entries that bind do so weakly or less than the wild type.

Key:
Flag‐Tip60 (human) = Flag‐Tip60 (human) (UniProt Q92993); test: proximity ligation; U2OS cells transfected 48 h with the indicated plasmids, fixed, Duolink in situ PLA with probes against HA and Flag; in Figure 6E with overexpressed RNF8
[1] = target: Tip60 (construct not named for the co-IP) (human) (UniProt Q92993); test: co-IP; HEK-293T whole cell lysates in RIPA buffer, antibody 3 h at 4°C, then protein A/G Sepharose 3 h, immunoblot; cells with or without Eto or CPT; in Figure 6D with or without overexpressed RNF8

Substance: HA‐p53 (from UniProt P04637 1-393)
- binding (Flag‐Tip60 (human)): binds

Substance: p53 (construct not named for the co-IP) (from UniProt P04637 1-393)
- binding [1]: binds
